Holding throughout (experiment): EMSA
Holding throughout (details): protein in a lysate after overexpression
In general terms: Mobility shift assays separate free from complexed probe on a gel.

In data set [1] the target is T1, FLAG-Aq-Cterm (Amphimedon queenslandica) (UniProt A0AAN0I883).
T1 sequence (looked up, limits assumed): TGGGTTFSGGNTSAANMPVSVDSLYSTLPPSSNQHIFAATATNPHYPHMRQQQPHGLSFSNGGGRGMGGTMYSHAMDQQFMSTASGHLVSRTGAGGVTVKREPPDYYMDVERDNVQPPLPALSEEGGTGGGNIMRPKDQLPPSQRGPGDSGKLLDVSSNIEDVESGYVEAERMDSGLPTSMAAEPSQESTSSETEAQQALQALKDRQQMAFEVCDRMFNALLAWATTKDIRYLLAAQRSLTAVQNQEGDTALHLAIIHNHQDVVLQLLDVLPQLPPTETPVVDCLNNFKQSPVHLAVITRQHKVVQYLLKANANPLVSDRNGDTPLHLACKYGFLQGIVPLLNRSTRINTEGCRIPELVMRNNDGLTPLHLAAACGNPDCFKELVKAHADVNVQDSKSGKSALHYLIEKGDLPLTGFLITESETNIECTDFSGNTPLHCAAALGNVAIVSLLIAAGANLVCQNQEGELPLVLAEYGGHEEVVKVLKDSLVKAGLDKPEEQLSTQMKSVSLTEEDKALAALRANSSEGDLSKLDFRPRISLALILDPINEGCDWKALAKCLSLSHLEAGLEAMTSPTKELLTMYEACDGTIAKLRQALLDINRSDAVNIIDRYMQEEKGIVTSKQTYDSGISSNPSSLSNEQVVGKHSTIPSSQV

For data set [2], the target named is T2, FLAG-Aq-NF-kB (full length) (Amphimedon queenslandica) (UniProt A0AAN0I883).
T2 sequence (looked up, limits assumed): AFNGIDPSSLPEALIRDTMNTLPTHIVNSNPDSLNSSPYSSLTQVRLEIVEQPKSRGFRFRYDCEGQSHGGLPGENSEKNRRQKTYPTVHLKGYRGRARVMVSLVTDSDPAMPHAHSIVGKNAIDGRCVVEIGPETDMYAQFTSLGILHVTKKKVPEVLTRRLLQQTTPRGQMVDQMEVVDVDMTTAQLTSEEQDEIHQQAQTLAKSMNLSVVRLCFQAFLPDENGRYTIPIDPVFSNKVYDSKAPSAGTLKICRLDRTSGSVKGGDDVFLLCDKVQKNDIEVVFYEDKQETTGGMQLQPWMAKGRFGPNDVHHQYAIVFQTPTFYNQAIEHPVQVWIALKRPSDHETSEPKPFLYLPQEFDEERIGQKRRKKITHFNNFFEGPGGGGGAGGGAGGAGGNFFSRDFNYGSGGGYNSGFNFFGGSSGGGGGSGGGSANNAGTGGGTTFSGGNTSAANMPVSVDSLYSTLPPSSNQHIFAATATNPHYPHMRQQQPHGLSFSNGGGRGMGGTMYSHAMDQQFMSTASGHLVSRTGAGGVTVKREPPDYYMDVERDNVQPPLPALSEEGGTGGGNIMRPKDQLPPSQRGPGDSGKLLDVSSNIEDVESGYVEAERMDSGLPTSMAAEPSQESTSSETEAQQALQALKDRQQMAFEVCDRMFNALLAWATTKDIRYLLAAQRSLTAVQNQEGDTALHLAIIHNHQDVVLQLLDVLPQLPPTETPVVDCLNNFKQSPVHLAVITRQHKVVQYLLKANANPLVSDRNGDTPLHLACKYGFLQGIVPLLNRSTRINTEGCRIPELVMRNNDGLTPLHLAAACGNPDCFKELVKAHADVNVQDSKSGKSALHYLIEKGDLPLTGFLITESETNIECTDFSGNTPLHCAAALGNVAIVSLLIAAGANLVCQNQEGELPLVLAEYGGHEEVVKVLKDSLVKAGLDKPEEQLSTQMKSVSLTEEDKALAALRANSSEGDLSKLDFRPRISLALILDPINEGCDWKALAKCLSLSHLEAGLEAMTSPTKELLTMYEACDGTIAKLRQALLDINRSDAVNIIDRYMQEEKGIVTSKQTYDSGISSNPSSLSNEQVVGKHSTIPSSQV

Data set [3] addresses T3, FLAG-Aq-RHD (Amphimedon queenslandica) (UniProt A0AAN0I883).
T3 sequence (looked up, limits assumed): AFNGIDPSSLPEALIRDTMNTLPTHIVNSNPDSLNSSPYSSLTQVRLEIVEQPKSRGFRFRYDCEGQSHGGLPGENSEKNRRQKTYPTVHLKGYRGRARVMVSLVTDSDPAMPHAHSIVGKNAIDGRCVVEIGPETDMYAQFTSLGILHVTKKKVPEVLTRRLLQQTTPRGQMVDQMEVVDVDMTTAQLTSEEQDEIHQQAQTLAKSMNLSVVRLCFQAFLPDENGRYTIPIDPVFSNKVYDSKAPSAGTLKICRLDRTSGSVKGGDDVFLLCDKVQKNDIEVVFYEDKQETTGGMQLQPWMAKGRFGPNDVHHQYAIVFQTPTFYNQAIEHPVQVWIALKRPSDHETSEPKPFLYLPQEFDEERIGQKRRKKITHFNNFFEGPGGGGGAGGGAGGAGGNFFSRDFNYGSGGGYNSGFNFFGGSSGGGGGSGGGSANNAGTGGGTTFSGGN

Data set [4] concerns FLAG-Nv-NF-kB (Nematostella vectensis).

Results from cells or extracts need not show a direct contact. For some of these results: A negative result means that nothing was seen under these conditions. For some of these results: Protein sequences can lack the tags named with them. For some of these results: Construct, isoform or probe ends are uncertain for at least one entry.

For the sequence “TCGAGAGGTCGGGGAATTCCCCCCCCG / TCGACGGGGGGGGAATTCCCCGACCTC [NF-kB-Consensus kB-site probe]”, the binding result in data set [1] is given as “no binding”; in data set [2] it was “binds”; in data set [3], “binds”; in data set [4] it was “binds”.

(Values after doi:10.1101/691097.)
